Measured values reported in PMC4077825.
Results are given in words; binding and its absence hold for the method and conditions named. In cells and extracts the contact can be indirect. Some binding calls cover weakened binding; strength is not graded here.

Protein sequences, listed by entry. Tags and fused reporters are not part of them.
UniProt P98177: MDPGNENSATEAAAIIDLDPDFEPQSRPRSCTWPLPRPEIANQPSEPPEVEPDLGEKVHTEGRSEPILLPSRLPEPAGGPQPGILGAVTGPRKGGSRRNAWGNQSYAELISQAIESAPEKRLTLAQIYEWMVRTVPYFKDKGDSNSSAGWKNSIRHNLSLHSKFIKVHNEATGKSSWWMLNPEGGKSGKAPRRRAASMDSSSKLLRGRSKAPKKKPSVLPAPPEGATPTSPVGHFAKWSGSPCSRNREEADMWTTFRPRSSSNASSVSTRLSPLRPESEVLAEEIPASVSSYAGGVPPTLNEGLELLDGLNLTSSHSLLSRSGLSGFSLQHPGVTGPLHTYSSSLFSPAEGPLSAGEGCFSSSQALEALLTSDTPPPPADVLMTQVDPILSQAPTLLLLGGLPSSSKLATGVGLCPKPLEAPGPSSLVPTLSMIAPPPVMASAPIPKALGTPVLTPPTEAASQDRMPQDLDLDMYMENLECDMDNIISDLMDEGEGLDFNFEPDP
UniProt Q13950: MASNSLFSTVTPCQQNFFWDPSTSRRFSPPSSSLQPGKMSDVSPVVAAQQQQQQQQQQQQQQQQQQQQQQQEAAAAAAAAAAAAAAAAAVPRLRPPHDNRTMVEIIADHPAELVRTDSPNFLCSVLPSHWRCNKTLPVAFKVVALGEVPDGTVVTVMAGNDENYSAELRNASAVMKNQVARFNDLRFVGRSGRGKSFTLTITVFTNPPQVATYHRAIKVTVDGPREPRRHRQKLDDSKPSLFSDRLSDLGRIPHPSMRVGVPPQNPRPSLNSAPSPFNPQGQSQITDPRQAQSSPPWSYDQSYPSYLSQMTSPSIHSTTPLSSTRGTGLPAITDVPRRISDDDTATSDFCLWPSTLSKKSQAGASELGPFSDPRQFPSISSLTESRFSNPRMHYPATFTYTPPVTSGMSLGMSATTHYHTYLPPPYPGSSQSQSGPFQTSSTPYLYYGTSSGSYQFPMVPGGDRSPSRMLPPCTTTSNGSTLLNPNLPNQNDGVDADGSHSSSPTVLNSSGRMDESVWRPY

How the values were obtained:
Myc-FOXO4 = Myc-FOXO4 (UniProt P98177); assay: co-IP; HEK293T co-transfected with Myc-FOXO4 plus HA-RUNX2 (HA-RUNX2 alone or empty vector as controls); lysed after 48 h in RIPA buffer; IP with HA Ab then Myc IB, or IP with Myc Ab then HA IB
HA-RUNX2 = HA-RUNX2 (UniProt Q13950); assay: as above

Row | binding (Myc-FOXO4) | binding (HA-RUNX2) | Substance
1 | binds | – | HA-RUNX2 (from UniProt Q13950 1-521)
2 | – | binds | Myc-FOXO4 (from UniProt P98177 1-505)
